Among the data in article PMC11196597 are binding values, retold here.

By UniProt entry, the sequences of proteins in these tests, tags left out.
UniProt P40337: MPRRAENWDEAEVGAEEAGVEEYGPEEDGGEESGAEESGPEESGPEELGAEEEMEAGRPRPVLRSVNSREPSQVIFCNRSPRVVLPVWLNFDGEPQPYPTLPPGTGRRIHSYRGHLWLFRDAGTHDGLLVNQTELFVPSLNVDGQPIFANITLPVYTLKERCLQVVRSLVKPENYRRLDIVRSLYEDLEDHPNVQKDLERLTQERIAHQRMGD

The target of test [1] is T1, endogenous UBE3B (human (endogenous in MDA-MB-231 and T47D)) (UniProt Q7Z3V4).
T1 sequence: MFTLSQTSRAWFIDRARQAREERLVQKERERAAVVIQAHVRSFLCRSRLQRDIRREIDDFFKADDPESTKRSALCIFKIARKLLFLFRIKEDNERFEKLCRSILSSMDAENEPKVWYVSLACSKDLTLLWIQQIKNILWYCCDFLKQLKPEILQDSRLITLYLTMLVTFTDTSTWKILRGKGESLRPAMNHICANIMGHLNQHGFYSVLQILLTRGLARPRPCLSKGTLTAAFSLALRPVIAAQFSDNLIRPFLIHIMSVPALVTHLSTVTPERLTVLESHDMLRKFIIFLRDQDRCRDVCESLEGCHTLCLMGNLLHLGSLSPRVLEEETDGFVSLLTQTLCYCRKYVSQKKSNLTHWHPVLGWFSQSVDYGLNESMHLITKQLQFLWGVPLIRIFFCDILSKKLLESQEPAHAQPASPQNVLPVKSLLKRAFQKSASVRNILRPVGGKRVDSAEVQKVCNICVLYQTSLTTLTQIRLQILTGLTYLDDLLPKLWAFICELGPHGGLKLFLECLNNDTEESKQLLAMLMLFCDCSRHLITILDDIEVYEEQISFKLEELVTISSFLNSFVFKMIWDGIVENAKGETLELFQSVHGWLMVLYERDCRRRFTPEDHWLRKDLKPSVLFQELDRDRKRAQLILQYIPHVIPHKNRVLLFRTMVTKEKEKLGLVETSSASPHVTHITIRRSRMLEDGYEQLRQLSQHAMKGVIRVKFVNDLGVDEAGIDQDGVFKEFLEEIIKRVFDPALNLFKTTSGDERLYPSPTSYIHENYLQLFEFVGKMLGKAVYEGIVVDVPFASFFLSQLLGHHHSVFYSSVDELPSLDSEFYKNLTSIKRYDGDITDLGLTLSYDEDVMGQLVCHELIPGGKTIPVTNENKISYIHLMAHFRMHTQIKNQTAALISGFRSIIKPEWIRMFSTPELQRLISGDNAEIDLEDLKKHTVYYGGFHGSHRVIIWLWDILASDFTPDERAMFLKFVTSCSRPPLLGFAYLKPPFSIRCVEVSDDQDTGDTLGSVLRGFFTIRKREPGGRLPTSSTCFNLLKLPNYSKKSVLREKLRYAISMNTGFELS
In words: co-IP; endogenous proteins in MDA-MB-231 and T47D cells treated with 10 μM MG132 for 6 h before harvest; IP of UBE3B or of VHL; lysis buffer 10 mM Tris-HCl, 150 mM NaCl, 1 mM EDTA, 0.5% NP-40, pH 7.4.

Test [2] deals with T2, Myc-UBE3B, full-length (FL) (human) (UniProt Q7Z3V4).
T2 sequence: T1 sequence
In words: co-IP; HEK293T and HeLa cells transfected with Flag-VHL and Myc-UBE3B; IP with anti-Flag or anti-Myc antibody and protein G/A magnetic beads overnight at 4 °C; lysis buffer 10 mM Tris-HCl, 150 mM NaCl, 1 mM EDTA, 0.5% NP-40, pH 7.4.

Results are given in words; binding and its absence hold for the method and conditions named. In cells and extracts the contact can be indirect. Some results given as binding are weak or reduced against the parent protein; the word gives no strength. For some assays here: Where a sequence is shown, tags or fusion partners need not be part of it.

For “endogenous VHL (from UniProt P40337 1-213)”, the binding result in test [1] is on record as “binds”. For the substance “Flag-VHL, full-length (from UniProt P40337 1-213)”, the binding result in test [2] is “binds”.
